One molecule from patent publication US8187572B2, “Diabetogenic rat model” (Hoffmann-La Roche Inc., priority 2005, dated 2012) can be followed below.

Each structure is given as a SMILES string.

The nature of this data set: Body weight, food intake and water intake of Pioglitazone-treated ZDF rats. It is filed as in vivo, rat. The settings on record: all treated groups; increased from ≈30 g; 10 mg/kg/d food-admix. The method, then: ZDF and ZL rats were ordered at the age of 5 W. After arrival and following 1 week of adaptation, 1 ml of blood was collected retro-orbitally after a short narcosis (isoflurane) in 6 W-old rats. […] A group of 10 ZL rats was formed and followed as a control group along the study duration (FIG. 3). Three groups of ZDF rats receive either vehicle (untreated) or Pioglitazone (treated) as food Admix. In each untreated/treated group of ZDF rats, one is fed a high fat diet during 11 weeks (group_full), during 4 weeks (group_mild) or during 2 weeks (group_low). Treatment was administered orally and prepared as food-admix. This mode of administration was preferred over oral gavage to reduce stress to the animals, avoid dosing errors and minimize handling. Pioglitazone (sufficient for 90 kg food) was dissolved in 18 liters of water. For the three treatment groups of 10 rats each, 6 liters of solution was combined with 30 kg of the diabetogenic diet (KLIBA 2437 with 7% of fat) or 12 liters were mixed with 60 Kg of the chow diet (Kliba 3436). The food was carefully dried at a temperature not exceeding 40° C. and then pelleted. […] The graphs and tables present the data according to expected daily dose. […] Body weight and food consumption were recorded with an on-line data acquisition system ([…]) using electronic balances.

For `CCc1ccc(CCOc2ccc(CC3SC(=O)NC3=O)cc2)nc1.Cl` (racemic) [Pioglitazone, (±)-5-[[4-[2-(5-ethyl-2-pyridinyl)ethoxy]phenyl]methyl]-2,4-], the “daily food intake (measured over 24 hours)” value was “≈ 50 g”.
